PubChem BioAssay AID1259308 | NCATS – 2017

Assay: 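Knock-downs that increase output of a recombinant reporter protein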 (primary screen)
Cells: human HEK293 embryonic kidney cells stably expressing firefly luciferase (HEK-CMV-Luc2-Hygro)
Knock-down reagent: single siRNA against human genes, 0.8 pmol siRNA per well
Timing: 72 h
Measured: 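Reporter luminescence and viable-cell signal on separate replicate plates, given as percent of non-targeting control and median/MAD z-scores, plus per-cell luciferase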
Direction: total luciferase, z-score and total luciferase, % of control: higher = more reporter protein produced; luciferase per cell, z-score: higher = more reporter output per viable cell; viable cells, % of control: higher = more viable cells
Active means: 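An siRNA counts as active if its total luciferase robust z-score exceeds 3; genes with two or more such siRNAs out of three were retested with fresh siRNAs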
Meaning of the calls: active = raised luciferase; inactive = no rise
This is an unselected part of about 59,000 reagents. About 1,510 of them (2.6%) count as active. 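Calls use total luciferase alone and ignore viability, so some active siRNAs may act by altering cell number.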 A number with no mark means an inactive call. Reagent sequences are not shown.

The opening 2 entries, to show the layout:
| gene symbol | PubChem SID | total luciferase, z-score | total luciferase, % of control | luciferase per cell, z-score | viable cells, % of control |
| --- | --- | --- | --- | --- | --- |
| MYLK (myosin light chain kinase) | SID160777694 | -0.423 | 73.5 | 0.228 | 77.3 |
| MYLK (myosin light chain kinase) | SID160777695 | -0.991 | 62.2 | -0.863 | 87.2 |

The list itself, from the first entry:
| gene symbol | PubChem SID | total luciferase, z-score | total luciferase, % of control | luciferase per cell, z-score | viable cells, % of control |
| --- | --- | --- | --- | --- | --- |
| MYLK (myosin light chain kinase) | SID160777694 | -0.423 | 73.5 | 0.228 | 77.3 |
| MYLK (myosin light chain kinase) | SID160777695 | -0.991 | 62.2 | -0.863 | 87.2 |
| MYLK (myosin light chain kinase) | SID160777696 | -0.3 | 75.9 | -0.939 | 109 |
| BTBD10 (BTB domain containing 10) | SID160752040 | -0.319 | 75.5 | -0.279 | 90.9 |
| BTBD10 (BTB domain containing 10) | SID160752041 | -0.604 | 69.9 | -1.06 | 103 |
| BTBD10 (BTB domain containing 10) | SID160752042 | -0.487 | 72.2 | -0.951 | 104 |
| TXNDC9 (thioredoxin domain containing 9) | SID160726688 | 1.11 | 104 | 1.29 | 82.7 |
| TXNDC9 (thioredoxin domain containing 9) | SID160726696 | 0.103 | 83.9 | -0.116 | 96.7 |
| TXNDC9 (thioredoxin domain containing 9) | SID160726703 | -0.376 | 74.4 | 0.379 | 75.2 |
| SYNPO (synaptopodin) | SID160731089 | 0.719 | 96.2 | 0.0136 | 107 |
| SYNPO (synaptopodin) | SID160731100 | 2.02 | 122 | 1.51 | 91.6 |
| SYNPO (synaptopodin) | SID160731108 | 0.0115 | 82.1 | -0.636 | 108 |
| LINC00173 (long independently transcribed non-coding RNA 173) | SID160733305 | -1.68 | 48.4 | -1.98 | 91.2 |
| LINC00173 (long independently transcribed non-coding RNA 173) | SID160766928 | 0.878 | 99.3 | 1.58 | 73.2 |
| LINC00173 (long independently transcribed non-coding RNA 173) | SID160766929 | 1.42 | 110 | 1.38 | 85.7 |
| FA2H (fatty acid 2-hydroxylase) | SID160748701 | -0.327 | 75.4 | -1.15 | 114 |
| FA2H (fatty acid 2-hydroxylase) | SID160748702 | 0.393 | 89.7 | -0.0515 | 102 |
| FA2H (fatty acid 2-hydroxylase) | SID160748703 | 1.2 | 106 | 1.71 | 75.4 |
| NKX6-2 (NK6 homeobox 2) | SID160724618 | 1.07 | 103 | 0.735 | 95 |
| NKX6-2 (NK6 homeobox 2) | SID160724619 | 4.08 (active) | 163 | 2.46 | 95.2 |
| NKX6-2 (NK6 homeobox 2) | SID160752329 | 1.49 | 112 | 0.735 | 103 |
| RPS4XP16 (ribosomal protein S4X pseudogene 16) | SID160761534 | 0.0522 | 82.9 | 0.366 | 84.2 |
| RPS4XP16 (ribosomal protein S4X pseudogene 16) | SID160761535 | 1.18 | 105 | 1.33 | 83.1 |
| RPS4XP16 (ribosomal protein S4X pseudogene 16) | SID160761536 | -1.09 | 60.2 | 1.24 | 48.5 |
